PubChem BioAssay AID1117269 – University of Michigan, 2014

- Test: 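Kinases whose silencing alters a TGF-beta responsive luciferase reporter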 (primary screen)
- Cell system: human A549 lung cancer and 1833 breast cancer (MDA-MB-231-derived) cell lines carrying a stable BTR luciferase reporter
- Reagents: siRNA pool against human genes
- Duration: 72 h after transfection, then 1 h TGF-beta before the read
- Conditions: TGF-beta 10 ng/mL added one hour before luciferin and read-out
- Detection: 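BTR reporter bioluminescence as fold change relative to non-targeting siRNA, averaging triplicates per line; knockdown for 72 h, then TGF-beta at 10 ng/mL 1 h prior to reading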
- Direction: fold over scrambled siRNA, A549 and fold over scrambled siRNA, 1833: higher = more reporter light, weaker TGF-beta receptor signalling
- Call rule: 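Hit in either line counts as active; per-line hits lie above an upper limit from quartiles of averaged log fold values, in plate and screen-wide analyses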
- Meaning of the calls: active = hit in at least one line; inactive = hit in neither line
Here is one part, drawn at random, of 714 reagents. 49 of all reagents (6.9%) were called active. 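Active means a hit in at least one line; per-line hit columns show which; some siRNA pools appear more than once.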 A reagent listed more than once was tested more than once; the source does not tell the runs apart. Reagent sequences are not shown. The record does not give: the amount of reagent.

gene | fold over scrambled siRNA, A549 | fold over scrambled siRNA, 1833 | hit in A549 | hit in 1833 | Call
MELK | 0.683 | 1.74 | not a hit in A549 | not a hit in 1833 | inactive
FGFR2 | 2.33 | 4.47 | not a hit in A549 | not a hit in 1833 | inactive
PEAK1 | 0.648 | 2.46 | not a hit in A549 | not a hit in 1833 | inactive
STK24 | 2.01 | 2.2 | not a hit in A549 | not a hit in 1833 | inactive
PKMYT1 | 1.52 | 3.44 | not a hit in A549 | not a hit in 1833 | inactive
CAMK1G | 2.69 | 2.38 | not a hit in A549 | not a hit in 1833 | inactive
PIK3CD | 6.64 | 1.85 | hit in A549 | not a hit in 1833 | active
STK38L | 4.05 | 4.66 | not a hit in A549 | not a hit in 1833 | inactive
AKT1 | 1.43 | 2.33 | not a hit in A549 | not a hit in 1833 | inactive
STK25 | 2.16 | 1.4 | not a hit in A549 | not a hit in 1833 | inactive
MAP3K4 | 1.12 | 1.48 | not a hit in A549 | not a hit in 1833 | inactive
MAPK13 | 2 | 2.34 | not a hit in A549 | not a hit in 1833 | inactive
CDK9 | 2.29 | 5.48 | not a hit in A549 | not a hit in 1833 | inactive
CSNK1E | 1.86 | 4.48 | not a hit in A549 | not a hit in 1833 | inactive
PKN3 | 3.76 | 6.6 | not a hit in A549 | not a hit in 1833 | inactive
PDK1 | 1.14 | 3.62 | not a hit in A549 | not a hit in 1833 | inactive
CDK17 | 2.48 | 6.56 | not a hit in A549 | not a hit in 1833 | inactive
TAB1 | 0.81 | 2.36 | not a hit in A549 | not a hit in 1833 | inactive
PIK3CG | 3.27 | 1.47 | not a hit in A549 | not a hit in 1833 | inactive
SHPK | 1.86 | 1.38 | not a hit in A549 | not a hit in 1833 | inactive
SPEG | 2.57 | 3.27 | not a hit in A549 | not a hit in 1833 | inactive
GRK3 | 1.81 | 4.28 | not a hit in A549 | not a hit in 1833 | inactive
TRIB3 | 2.37 | 5.08 | not a hit in A549 | not a hit in 1833 | inactive
PDGFRA | 3.76 | 0.963 | not a hit in A549 | not a hit in 1833 | inactive
BLK | 2.18 | 17.3 | not a hit in A549 | hit in 1833 | –
NAGK | 1.31 | 1.13 | not a hit in A549 | not a hit in 1833 | inactive
PTK7 | 1.45 | 7.81 | not a hit in A549 | not a hit in 1833 | inactive
PRKAR1B | 1.63 | 7.76 | not a hit in A549 | not a hit in 1833 | inactive
EIF2AK3 | 3.44 | 2.78 | not a hit in A549 | not a hit in 1833 | inactive
LRRK2 | 2.14 | 3.66 | not a hit in A549 | not a hit in 1833 | inactive
FES | 2.52 | 2.38 | not a hit in A549 | not a hit in 1833 | inactive
GSK3A | 1.06 | 4.14 | not a hit in A549 | not a hit in 1833 | inactive
TSSK6 | 0.51 | 0.407 | not a hit in A549 | not a hit in 1833 | inactive
TSSK6 | 3.9 | 6.02 | not a hit in A549 | not a hit in 1833 | inactive
EXOSC10 | 0.81 | 1.9 | not a hit in A549 | not a hit in 1833 | inactive
PHKB | 2.42 | 2.6 | not a hit in A549 | not a hit in 1833 | inactive
NEK2 | 4.07 | 1.07 | not a hit in A549 | not a hit in 1833 | inactive
ELP1 | 1.72 | 3.1 | not a hit in A549 | not a hit in 1833 | inactive
MARK1 | 0.895 | 2.67 | not a hit in A549 | not a hit in 1833 | inactive

Ordered by “fold over scrambled siRNA, A549” (ascending): some entries from above
gene | fold over scrambled siRNA, A549 | fold over scrambled siRNA, 1833 | hit in A549 | hit in 1833 | Call
MARK1 | 0.895 | 2.67 | not a hit in A549 | not a hit in 1833 | inactive
ELP1 | 1.72 | 3.1 | not a hit in A549 | not a hit in 1833 | inactive
PHKB | 2.42 | 2.6 | not a hit in A549 | not a hit in 1833 | inactive
NEK2 | 4.07 | 1.07 | not a hit in A549 | not a hit in 1833 | inactive
